Measurements as given in publication PMC12669712.
No constants are given. Whether binding was seen depends on the method and setting. For some of these results: Binding seen in cells or lysates may run through a third protein. Some results given as binding are weak or reduced against the parent protein; the word gives no strength.

Amino acid sequences for entries named in this document (tags omitted).
UniProt P46938: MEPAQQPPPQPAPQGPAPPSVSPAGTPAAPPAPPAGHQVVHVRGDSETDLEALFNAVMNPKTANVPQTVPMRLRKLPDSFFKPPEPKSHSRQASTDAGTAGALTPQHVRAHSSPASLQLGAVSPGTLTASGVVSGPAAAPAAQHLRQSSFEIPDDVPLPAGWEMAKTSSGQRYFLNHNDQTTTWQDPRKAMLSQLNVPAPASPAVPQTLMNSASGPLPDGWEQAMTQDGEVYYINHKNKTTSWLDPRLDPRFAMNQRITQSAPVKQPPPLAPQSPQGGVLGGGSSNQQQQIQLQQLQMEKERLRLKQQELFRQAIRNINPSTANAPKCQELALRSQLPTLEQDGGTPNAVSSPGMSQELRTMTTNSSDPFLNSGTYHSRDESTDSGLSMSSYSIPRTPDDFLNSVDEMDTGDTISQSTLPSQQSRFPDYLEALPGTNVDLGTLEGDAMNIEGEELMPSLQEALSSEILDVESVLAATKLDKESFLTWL

T1: Recombinant LATS1 (Active Motif, #81209) (human) (UniProt O95835)
T1 sequence: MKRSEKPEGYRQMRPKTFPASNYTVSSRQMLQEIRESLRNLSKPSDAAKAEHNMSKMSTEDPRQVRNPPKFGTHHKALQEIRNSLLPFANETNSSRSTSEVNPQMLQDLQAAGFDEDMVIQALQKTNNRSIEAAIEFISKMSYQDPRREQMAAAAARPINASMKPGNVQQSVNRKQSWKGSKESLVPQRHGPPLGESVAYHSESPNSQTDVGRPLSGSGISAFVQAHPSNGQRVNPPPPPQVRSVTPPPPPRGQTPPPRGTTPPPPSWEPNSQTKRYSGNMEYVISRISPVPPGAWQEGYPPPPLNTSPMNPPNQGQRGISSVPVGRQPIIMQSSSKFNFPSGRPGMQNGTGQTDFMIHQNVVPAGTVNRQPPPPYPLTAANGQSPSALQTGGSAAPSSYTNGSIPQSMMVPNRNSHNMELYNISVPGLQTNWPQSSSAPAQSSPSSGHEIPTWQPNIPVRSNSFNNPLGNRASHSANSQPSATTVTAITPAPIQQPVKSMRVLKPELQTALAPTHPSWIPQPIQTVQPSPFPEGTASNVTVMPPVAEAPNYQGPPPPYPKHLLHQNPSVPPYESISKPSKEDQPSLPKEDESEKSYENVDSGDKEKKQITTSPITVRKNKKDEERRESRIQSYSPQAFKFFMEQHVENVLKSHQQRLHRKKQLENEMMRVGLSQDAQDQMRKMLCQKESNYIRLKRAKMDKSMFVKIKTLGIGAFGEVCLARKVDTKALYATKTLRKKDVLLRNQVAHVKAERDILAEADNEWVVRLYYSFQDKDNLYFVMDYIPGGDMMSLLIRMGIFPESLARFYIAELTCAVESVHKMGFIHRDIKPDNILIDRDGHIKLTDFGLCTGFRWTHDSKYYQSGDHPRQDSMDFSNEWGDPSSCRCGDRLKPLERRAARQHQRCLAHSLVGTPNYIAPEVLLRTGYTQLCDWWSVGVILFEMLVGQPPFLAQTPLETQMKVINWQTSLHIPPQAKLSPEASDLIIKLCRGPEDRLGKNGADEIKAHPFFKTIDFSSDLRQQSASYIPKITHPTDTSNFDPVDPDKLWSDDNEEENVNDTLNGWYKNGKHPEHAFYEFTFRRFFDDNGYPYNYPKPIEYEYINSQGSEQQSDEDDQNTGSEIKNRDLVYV

T2: LATS1, endogenous in MEFs (mouse (endogenous in MEFs)) (UniProt Q8BYR2)
T2 sequence: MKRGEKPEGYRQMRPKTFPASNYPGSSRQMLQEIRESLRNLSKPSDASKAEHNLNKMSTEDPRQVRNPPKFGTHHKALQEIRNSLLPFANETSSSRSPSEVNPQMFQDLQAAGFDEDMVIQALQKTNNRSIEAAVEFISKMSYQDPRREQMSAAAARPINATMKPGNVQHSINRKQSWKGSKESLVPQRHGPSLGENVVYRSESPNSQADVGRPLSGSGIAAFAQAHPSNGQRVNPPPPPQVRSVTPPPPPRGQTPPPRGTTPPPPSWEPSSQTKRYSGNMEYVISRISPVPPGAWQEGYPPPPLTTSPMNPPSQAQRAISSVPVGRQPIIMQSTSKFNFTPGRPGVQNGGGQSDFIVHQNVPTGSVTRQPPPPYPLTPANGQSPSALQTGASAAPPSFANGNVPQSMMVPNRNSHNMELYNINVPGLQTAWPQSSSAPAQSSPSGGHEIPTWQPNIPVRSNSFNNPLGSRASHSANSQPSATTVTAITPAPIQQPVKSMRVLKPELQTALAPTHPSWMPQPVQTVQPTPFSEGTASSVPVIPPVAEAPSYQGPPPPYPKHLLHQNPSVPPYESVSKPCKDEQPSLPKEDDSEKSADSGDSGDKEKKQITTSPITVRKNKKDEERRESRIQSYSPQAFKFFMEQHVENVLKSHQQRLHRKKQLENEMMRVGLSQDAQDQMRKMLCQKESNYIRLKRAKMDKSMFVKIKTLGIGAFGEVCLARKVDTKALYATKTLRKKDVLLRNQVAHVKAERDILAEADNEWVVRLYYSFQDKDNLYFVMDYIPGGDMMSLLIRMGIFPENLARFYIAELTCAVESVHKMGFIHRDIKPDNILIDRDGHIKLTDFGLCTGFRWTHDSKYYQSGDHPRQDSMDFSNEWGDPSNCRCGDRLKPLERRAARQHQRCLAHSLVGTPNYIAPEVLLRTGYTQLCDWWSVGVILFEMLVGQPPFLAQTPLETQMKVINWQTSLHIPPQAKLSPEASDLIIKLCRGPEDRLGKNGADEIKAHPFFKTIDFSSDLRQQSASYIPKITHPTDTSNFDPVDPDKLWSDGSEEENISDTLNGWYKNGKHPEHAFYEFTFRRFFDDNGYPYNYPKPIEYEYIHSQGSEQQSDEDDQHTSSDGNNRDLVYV

T3: MST1, endogenous in MEFs (mouse (endogenous in MEFs)) (UniProt Q9JI11)
T3 sequence: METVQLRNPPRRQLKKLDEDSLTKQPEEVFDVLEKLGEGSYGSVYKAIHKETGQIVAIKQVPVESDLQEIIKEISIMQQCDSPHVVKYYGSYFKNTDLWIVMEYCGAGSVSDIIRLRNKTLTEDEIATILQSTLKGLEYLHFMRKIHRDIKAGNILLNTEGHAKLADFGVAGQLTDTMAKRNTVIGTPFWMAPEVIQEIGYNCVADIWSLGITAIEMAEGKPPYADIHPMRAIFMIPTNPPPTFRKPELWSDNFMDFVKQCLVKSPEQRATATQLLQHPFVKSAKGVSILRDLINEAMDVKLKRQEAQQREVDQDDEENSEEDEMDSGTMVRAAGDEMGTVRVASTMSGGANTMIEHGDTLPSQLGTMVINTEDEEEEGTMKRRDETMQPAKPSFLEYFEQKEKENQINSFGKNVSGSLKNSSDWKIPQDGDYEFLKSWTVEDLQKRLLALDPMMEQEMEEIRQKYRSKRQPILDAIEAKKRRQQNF


Experiments:
[1] = target: T1, Recombinant LATS1 (Active Motif, #81209) (human); assay: mass photometry; Refeyn OneMP; proteins diluted in PBS to a final concentration of 20 nM; room temperature; both purified
[2] = target: T2, LATS1, endogenous in MEFs (mouse (endogenous in MEFs)); assay: co-IP; KSR1+/+ MEF lysates in Buffer A; protein A-Sepharose with anti-MST1, anti-LATS1 or anti-YAP antibodies, 3 h at 4 °C; rabbit IgG as control; in Fig. 8 cells serum-starved for 16 h, then EGF or vehicle for 5 min
[3] = target: T3, MST1, endogenous in MEFs (mouse (endogenous in MEFs)); assay: as above
[4] = target: YAP, endogenous in MEFs (mouse (endogenous in MEFs)) (UniProt P46938); assay: as above

binding [1] | binding [2] | binding [3] | binding [4] | Binder
binds | – | – | – | Recombinant human KSR1 (Abcam, #ab268719) (protein, UniProt Q8IVT5 1-923) MDRAALRAAAMGEKKEGGGGGDAAAAEGGAGAAASRALQQCGQLQKLIDISIGSLRGLRTKCAVSNDLTQQEIRTLEAKLVRYICKQRQCKLSVAPGERTPELNSYPRFSDWLYTFNVRPEVVQEIPRDLTLDALLEMNEAKVKETLRRCGASGDECGRLQYALTCLRKVTGLGGEHKEDSSWSSLDARRESGSGPSTDTLSAASLPWPPGSSQLGRAGNSAQGPRSISVSALPASDSPTPSFSEGLSDTCIPLHASGRLTPRALHSFITPPTTPQLRRHTKLKPPRTPPPPSRKVFQLLPSFPTLTRSKSHESQLGNRIDDVSSMRFDLSHGSPQMVRRDIGLSVTHRFSTKSWLSQVCHVCQKSMIFGVKCKHCRLKCHNKCTKEAPACRISFLPLTRLRRTESVPSDINNPVDRAAEPHFGTLPKALTKKEHPPAMNHLDSSSNPSSTTSSTPSSPAPFPTSSNPSSATTPPNPSPGQRDSRFNFPAAYFIHHRQQFIFPVPSAGHCWKCLLIAESLKENAFNISAFAHAAPLPEAADGTRLDDQPKADVLEAHEAEAEEPEAGKSEAEDDEDEVDDLPSSRRPWRGPISRKASQTSVYLQEWDIPFEQVELGEPIGQGRWGRVHRGRWHGEVAIRLLEMDGHNQDHLKLFKKEVMNYRQTRHENVVLFMGACMNPPHLAIITSFCKGRTLHSFVRDPKTSLDINKTRQIAQEIIKGMGYLHAKGIVHKDLKSKNVFYDNGKVVITDFGLFGISGVVREGRRENQLKLSHDWLCYLAPEIVREMTPGKDEDQLPFSKAADVYAFGTVWYELQARDWPLKNQAAEASIWQIGSGEGMKRVLTSVSLGKEVSEILSACWAFDLQERPSFSLLMDMLEKLPKLNRRLSHPGHFWKSADINSSKVVPRFERFGLGVLESSNPKM
– | binds | binds | binds | KSR1 stably overexpressed in KSR1+/+ MEFs (protein, UniProt Q61097 1-873) MDRAALRAAAMGEKKEGGGGGAAADGGAGAAVSRALQQCGQLQKLIDISIGSLRGLRTKCSVSNDLTQQEIRTLEAKLVKYICKQQQSKLSVTPSDRTAELNSYPRFSDWLYIFNVRPEVVQEIPQELTLDALLEMDEAKAKEMLRRWGASTEECSRLQQALTCLRKVTGLGGEHKMDSGWSSTDARDSSLGPPMDMLSSLGRAGASTQGPRSISVSALPASDSPVPGLSEGLSDSCIPLHTSGRLTPRALHSFITPPTTPQLRRHAKLKPPRTPPPPSRKVFQLLPSFPTLTRSKSHESQLGNRIDDVTPMKFELPHGSPQLVRRDIGLSVTHRFSTKSWLSQVCNVCQKSMIFGVKCKHCRLKCHNKCTKEAPACRITFLPLARLRRTESVPSDINNPVDRAAEPHFGTLPKALTKKEHPPAMNLDSSSNPSSTTSSTPSSPAPFLTSSNPSSATTPPNPSPGQRDSRFSFPDISACSQAAPLSSTADSTRLDDQPKTDVLGVHEAEAEEPEAGKSEAEDDEEDEVDDLPSSRRPWRGPISRKASQTSVYLQEWDIPFEQVELGEPIGQGRWGRVHRGRWHGEVAIRLLEMDGHNQDHLKLFKKEVMNYRQTRHENVVLFMGACMNPPHLAIITSFCKGRTLHSFVRDPKTSLDINKTRQIAQEIIKGMGYLHAKGIVHKDLKSKNVFYDNGKVVITDFGLFGISGVVREERRENQLKLSHDWLCYLAPEIVREMIPGRDEDQLPFSKAADVYAFGTVWYELQARDWPFKHQPAEALIWQIGSGEGVRRVLASVSLGKEVGEILSACWAFDLQERPSFSLLMDMLERLPKLNRRLSHPGHFWKSADINSSKVMPRFERFGLGTLESGNPKM
